# System: HS black-grass proteome
# Assay: DiGE proteome of HS black-grass exposed to a wheat safener
# Assay type: in vivo, Alopecurus myosuroides
# Conditions: safener 30 mM watered 4 days before harvest
compound,measurement,setting,value
CCCCCC(C)OC(=O)COc1ccc(Cl)c2cccnc12 (centres unmarked) [cloquintocet-mexyl],resolved polypeptides in leaves showing changes in abundance relative to controls,"leaves, 131 of 512 protein spots",25%
same,stem proteome showing changes in abundance relative to controls,"stem, 26 of 874 protein spots",3%
